# Paper doi:10.1101/2025.03.06.641775
# No constants are given. Whether binding was seen depends on the method and setting. Tags and fused reporters may be left off the sequences shown.
# Biological target: T1, MtbPdtaS-GFP (M. tuberculosis) (UniProt P9WGL5)
# T1 sequence: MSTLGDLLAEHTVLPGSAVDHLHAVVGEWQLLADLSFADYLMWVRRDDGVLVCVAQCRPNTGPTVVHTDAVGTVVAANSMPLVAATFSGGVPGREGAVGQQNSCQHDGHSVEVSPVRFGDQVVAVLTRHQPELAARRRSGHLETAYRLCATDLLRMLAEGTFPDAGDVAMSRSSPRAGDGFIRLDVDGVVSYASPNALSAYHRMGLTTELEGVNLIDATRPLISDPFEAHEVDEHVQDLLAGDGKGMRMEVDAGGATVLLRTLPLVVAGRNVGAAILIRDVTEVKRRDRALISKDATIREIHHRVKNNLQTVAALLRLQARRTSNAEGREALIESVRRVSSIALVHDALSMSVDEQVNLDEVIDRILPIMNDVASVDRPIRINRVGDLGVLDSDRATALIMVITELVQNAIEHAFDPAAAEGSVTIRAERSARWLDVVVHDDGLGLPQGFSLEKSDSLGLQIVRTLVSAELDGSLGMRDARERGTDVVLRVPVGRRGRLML
# Assay: MST
substance,measurement,value
"M. tuberculosis MutT1 (MtbMutT1), wild type (from UniProt P9WIY3 1-317) (enzyme)",binding,no binding (tested: 0.45 nM to 15 μM)
